Assay results reported in paper PMC6761256.
These are yes or no findings as the source states them, for the method shown. In cells and extracts the contact can be indirect. Some results given as binding are weak or reduced against the parent protein; the word gives no strength. Each block holds one binder with its values, some of them ahead of it.

How the values were obtained:
[1] = target: T1, mixed lineage kinase domain-like protein (rat (endogenous in brain tissue)) (UniProt D3ZKP6); experiment: co-IP; endogenous proteins in lysates of rat brain tissue 6 h after CCI (weak RIPA lysis buffer, pre-cleared with protein A/G agarose); 500 ul extract with 2 ug primary antibody (RIP3 or MLKL precipitated) overnight at 4°C, protein A/G agarose 4 h at 4°C, immunoblot; also in rats given AAV-shA20 or AAV-shCtrl, Nec-1 or melatonin
T1 sequence: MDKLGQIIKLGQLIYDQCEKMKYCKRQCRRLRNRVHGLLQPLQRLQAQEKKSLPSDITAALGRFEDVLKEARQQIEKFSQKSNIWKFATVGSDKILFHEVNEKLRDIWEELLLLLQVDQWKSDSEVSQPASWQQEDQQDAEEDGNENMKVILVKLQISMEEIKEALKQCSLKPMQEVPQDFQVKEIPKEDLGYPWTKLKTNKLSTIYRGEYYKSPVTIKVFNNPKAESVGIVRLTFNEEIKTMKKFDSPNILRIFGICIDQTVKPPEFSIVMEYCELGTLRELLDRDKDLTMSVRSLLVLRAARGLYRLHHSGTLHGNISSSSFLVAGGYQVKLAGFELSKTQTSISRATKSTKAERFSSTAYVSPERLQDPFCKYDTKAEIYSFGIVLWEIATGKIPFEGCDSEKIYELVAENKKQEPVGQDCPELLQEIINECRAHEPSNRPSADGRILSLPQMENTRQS

[2] = target: T2, RIP3 (rat (endogenous in brain tissue)) (UniProt Q9Z2P5); experiment: as above
T2 sequence: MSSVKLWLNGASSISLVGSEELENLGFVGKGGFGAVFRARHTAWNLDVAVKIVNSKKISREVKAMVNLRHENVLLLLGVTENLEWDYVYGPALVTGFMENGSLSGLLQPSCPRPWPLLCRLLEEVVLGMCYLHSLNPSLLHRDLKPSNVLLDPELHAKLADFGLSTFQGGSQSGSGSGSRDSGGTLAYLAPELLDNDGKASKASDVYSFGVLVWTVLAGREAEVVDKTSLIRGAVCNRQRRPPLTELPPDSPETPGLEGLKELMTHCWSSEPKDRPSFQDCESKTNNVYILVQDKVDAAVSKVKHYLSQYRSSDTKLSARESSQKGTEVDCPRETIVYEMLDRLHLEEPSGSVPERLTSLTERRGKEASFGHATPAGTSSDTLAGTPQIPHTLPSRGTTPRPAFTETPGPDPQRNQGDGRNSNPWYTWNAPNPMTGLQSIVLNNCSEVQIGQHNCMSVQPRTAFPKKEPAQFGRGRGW

binding [1]: binds
B1: RIP3 (protein, UniProt Q9Z2P5 1-478)
chain: T2 sequence

binding [2]: binds
B2: mixed lineage kinase domain-like protein (protein, UniProt D3ZKP6 1-462)
chain: T1 sequence
